Assay [1] concerns the target T1, RFP-SPPL3 D271A (catalytically inactive SPPL3 mutant) (UniProt Q8TCT6).
T1 sequence: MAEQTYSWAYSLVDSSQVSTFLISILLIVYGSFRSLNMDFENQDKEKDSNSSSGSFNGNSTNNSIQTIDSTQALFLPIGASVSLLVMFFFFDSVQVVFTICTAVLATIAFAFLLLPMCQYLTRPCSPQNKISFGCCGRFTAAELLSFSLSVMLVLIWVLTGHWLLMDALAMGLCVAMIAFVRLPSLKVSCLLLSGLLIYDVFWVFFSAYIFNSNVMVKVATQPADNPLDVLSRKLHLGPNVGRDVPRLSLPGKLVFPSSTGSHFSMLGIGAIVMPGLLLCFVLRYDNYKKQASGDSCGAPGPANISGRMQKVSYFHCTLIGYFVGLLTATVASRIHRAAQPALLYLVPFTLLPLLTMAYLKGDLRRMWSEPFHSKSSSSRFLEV
The assay can be described thus: co-IP.

The target of assay [2] is T2, RFP-SPPL3 (signal peptide peptidase like 3, wild type) (UniProt Q8TCT6).
T2 sequence: T1 sequence with A271D
Briefly: co-IP.

Substitutions are numbered along the chain they refer to. No constants are given. Whether binding was seen depends on the method and setting. In cells and extracts the contact can be indirect. Some binding calls cover weakened binding; strength is not graded here. Sequences can lack the tags named with a protein.

B1: FLAG-ST3GAL5 (enzyme, UniProt Q9UNP4 1-418)
chain: MRTKAAGCAERRPLQPRTEAAAAPAGRAMPSEYTYVKLRSDCSRPSLQWYTRAQSKMRRPSLLLKDILKCTLLVFGVWILYILKLNYTTEECDMKKMHYVDPDHVKRAQKYAQQVLQKECRPKFAKTSMALLFEHRYSVDLLPFVQKAPKDSEAESKYDPPFGFRKFSSKVQTLLELLPEHDLPEHLKAKTCRRCVVIGSGGILHGLELGHTLNQFDVVIRLNSAPVEGYSEHVGNKTTIRMTYPEGAPLSDLEYYSNDLFVAVLFKSVDFNWLQAMVKKETLPFWVRLFFWKQVAEKIPLQPKHFRILNPVIIKETAFDILQYSEPQSRFWGRDKNVPTIGVIAVVLATHLCDEVSLAGFGYDLNQPRTPLHYFDSQCMAAMNFQTMHNVTTETKFLLKLVKEGVVKDLSGGIDREF
For the molecule B1, the binding result in assay [1] and in assay [2] was “no binding” in each case.

B2: FLAG-B3GNT5 (enzyme, UniProt Q9BYG0 1-378)
chain: MRMLVSGRRVKKWQLIIQLFATCFLASLMFFWEPIDNHIVSHMKSYSYRYLINSYDFVNDTLSLKHTSAGPRYQYLINHKEKCQAQDVLLLLFVKTAPENYDRRSGIRRTWGNENYVRSQLNANIKTLFALGTPNPLEGEELQRKLAWEDQRYNDIIQQDFVDSFYNLTLKLLMQFSWANTYCPHAKFLMTADDDIFIHMPNLIEYLQSLEQIGVQDFWIGRVHRGAPPIRDKSSKYYVSYEMYQWPAYPDYTAGAAYVISGDVAAKVYEASQTLNSSLYIDDVFMGLCANKIGIVPQDHVFFSGEGKTPYHPCIYEKMMTSHGHLEDLQDLWKNATDPKVKTISKGFFGQIYCRLMKIILLCKISYVDTYPCRAAFI
For B2, the binding entry in assay [1] is listed as “binds”; in assay [2], “no binding”.

B3: FLAG-B4GALNT1 (enzyme, UniProt Q00973 1-533)
chain: MWLGRRALCALVLLLACASLGLLYASTRDAPGLRLPLAPWAPPQSPRRPELPDLAPEPRYAHIPVRIKEQVVGLLAWNNCSCESSGGGLPLPFQKQVRAIDLTKAFDPAELRAASATREQEFQAFLSRSQSPADQLLIAPANSPLQYPLQGVEVQPLRSILVPGLSLQAASGQEVYQVNLTASLGTWDVAGEVTGVTLTGEGQADLTLVSPGLDQLNRQLQLVTYSSRSYQTNTADTVRFSTEGHEAAFTIRIRHPPNPRLYPPGSLPQGAQYNISALVTIATKTFLRYDRLRALITSIRRFYPTVTVVIADDSDKPERVSGPYVEHYLMPFGKGWFAGRNLAVSQVTTKYVLWVDDDFVFTARTRLERLVDVLERTPLDLVGGAVREISGFATTYRQLLSVEPGAPGLGNCLRQRRGFHHELVGFPGCVVTDGVVNFFLARTDKVREVGFDPRLSRVAHLEFFLDGLGSLRVGSCSDVVVDHASKLKLPWTSRDAGAETYARYRYPGSLDESQMAKHRLLFFKHRLQCMTSQ
For B3, the binding result in assay [1] and in assay [2] was “no binding” throughout.

The record behind these values is doi:10.1101/2020.09.26.313585.
